# Legend:
# panelists [1] = test: Sensory evaluation: bitter taste of leucine with addition of pyroglutamic acid and theanine (1:50); assay type: in vivo; conditions: no mixture added
# [2] = minimum concentration at which taste can be perceived; cited from earlier work
# panelists [3] = test: Sensory evaluation: taste of glutamic acid with addition of pyroglutamic acid; assay type: in vivo
# panelists [4] = test: Sensory evaluation: bitter taste of valine with addition of pyroglutamic acid and theanine; conditions: for number of panelists who felt the bitter taste of valine: ten panelists
# panelists [5] = test: Sensory evaluation: bitter taste of isoleucine with addition of pyroglutamic acid and theanine (1:50); assay type: in vivo; conditions: for number of panelists who felt the bitter taste of isoleucine: ten panelists
compound,measurement,setting,value
CC(C)C[C@H](N)C(=O)O [leucine],threshold of leucine,panelists [1],380 mg/100 ml
N[C@@H](CCC(=O)O)C(=O)O [glutamic acid],taste threshold,[2],5 mg/100 ml
same,whether the taste of the glutamic acid solution was felt,"panelists [3]; glutamic acid 100 mg/100 ml, pyroglutamic acid 100 mg/100 ml, ten panelists",not felt
same,threshold of glutamic acid,panelists [3]; no pyroglutamic acid,5 mg/100 ml
CC(C)[C@H](N)C(=O)O [valine],taste threshold,[2],150 mg/100 ml
same,threshold of valine,panelists [4]; no mixture added,150 mg/100 ml
same,number of panelists who felt the bitter taste of valine,"panelists [4]; valine 100, pyroglutamic acid/theanine 0 (mg/100 ml)",0
same,number of panelists who felt the bitter taste of valine,"panelists [4]; valine 100, pyroglutamic acid/theanine 1 (mg/100 ml)",0
same,number of panelists who felt the bitter taste of valine,"panelists [4]; valine 100, pyroglutamic acid/theanine 10 (mg/100 ml)",0
same,number of panelists who felt the bitter taste of valine,"panelists [4]; valine 100, pyroglutamic acid/theanine 50 (mg/100 ml)",0
same,number of panelists who felt the bitter taste of valine,"panelists [4]; valine 100, pyroglutamic acid/theanine 100 (mg/100 ml)",0
same,number of panelists who felt the bitter taste of valine,"panelists [4]; valine 150, pyroglutamic acid/theanine 1 (mg/100 ml)",2
same,number of panelists who felt the bitter taste of valine,"panelists [4]; valine 150, pyroglutamic acid/theanine 50 (mg/100 ml)",0
same,number of panelists who felt the bitter taste of valine,"panelists [4]; valine 150, pyroglutamic acid/theanine 100 (mg/100 ml)",0
same,number of panelists who felt the bitter taste of valine,"panelists [4]; valine 500, pyroglutamic acid/theanine 0 (mg/100 ml)",10
same,number of panelists who felt the bitter taste of valine,"panelists [4]; valine 500, pyroglutamic acid/theanine 1 (mg/100 ml)",3
same,number of panelists who felt the bitter taste of valine,"panelists [4]; valine 500, pyroglutamic acid/theanine 10 (mg/100 ml)",1
same,number of panelists who felt the bitter taste of valine,"panelists [4]; valine 500, pyroglutamic acid/theanine 50 (mg/100 ml)",0
same,number of panelists who felt the bitter taste of valine,"panelists [4]; valine 500, pyroglutamic acid/theanine 100 (mg/100 ml)",0
same,number of panelists who felt the bitter taste of valine,"panelists [4]; valine 1000, pyroglutamic acid/theanine 0 (mg/100 ml)",10
same,number of panelists who felt the bitter taste of valine,"panelists [4]; valine 1000, pyroglutamic acid/theanine 1 (mg/100 ml)",5
same,number of panelists who felt the bitter taste of valine,"panelists [4]; valine 1000, pyroglutamic acid/theanine 10 (mg/100 ml)",3
same,number of panelists who felt the bitter taste of valine,"panelists [4]; valine 1000, pyroglutamic acid/theanine 50 (mg/100 ml)",1
CC[C@H](C)[C@H](N)C(=O)O [isoleucine],taste threshold,[2],90 mg/100 ml
same,number of panelists who felt the bitter taste of isoleucine,"panelists [5]; isoleucine 50, pyroglutamic acid/theanine 0 (mg/100 ml)",0
same,number of panelists who felt the bitter taste of isoleucine,"panelists [5]; isoleucine 50, pyroglutamic acid/theanine 1 (mg/100 ml)",0
same,number of panelists who felt the bitter taste of isoleucine,"panelists [5]; isoleucine 50, pyroglutamic acid/theanine 10 (mg/100 ml)",0
same,number of panelists who felt the bitter taste of isoleucine,"panelists [5]; isoleucine 50, pyroglutamic acid/theanine 50 (mg/100 ml)",0
same,number of panelists who felt the bitter taste of isoleucine,"panelists [5]; isoleucine 50, pyroglutamic acid/theanine 100 (mg/100 ml)",0
same,number of panelists who felt the bitter taste of isoleucine,"panelists [5]; isoleucine 90, pyroglutamic acid/theanine 1 (mg/100 ml)",4
same,number of panelists who felt the bitter taste of isoleucine,"panelists [5]; isoleucine 90, pyroglutamic acid/theanine 10 (mg/100 ml)",1
same,number of panelists who felt the bitter taste of isoleucine,"panelists [5]; isoleucine 90, pyroglutamic acid/theanine 100 (mg/100 ml)",0
same,number of panelists who felt the bitter taste of isoleucine,"panelists [5]; isoleucine 200, pyroglutamic acid/theanine 0 (mg/100 ml)",9
same,number of panelists who felt the bitter taste of isoleucine,"panelists [5]; isoleucine 200, pyroglutamic acid/theanine 1 (mg/100 ml)",4
same,number of panelists who felt the bitter taste of isoleucine,"panelists [5]; isoleucine 200, pyroglutamic acid/theanine 10 (mg/100 ml)",1
same,number of panelists who felt the bitter taste of isoleucine,"panelists [5]; isoleucine 200, pyroglutamic acid/theanine 50 (mg/100 ml)",0
same,number of panelists who felt the bitter taste of isoleucine,"panelists [5]; isoleucine 200, pyroglutamic acid/theanine 100 (mg/100 ml)",0
same,number of panelists who felt the bitter taste of isoleucine,"panelists [5]; isoleucine 500, pyroglutamic acid/theanine 0 (mg/100 ml)",10
same,number of panelists who felt the bitter taste of isoleucine,"panelists [5]; isoleucine 500, pyroglutamic acid/theanine 1 (mg/100 ml)",6
same,number of panelists who felt the bitter taste of isoleucine,"panelists [5]; isoleucine 500, pyroglutamic acid/theanine 10 (mg/100 ml)",4
same,number of panelists who felt the bitter taste of isoleucine,"panelists [5]; isoleucine 500, pyroglutamic acid/theanine 50 (mg/100 ml)",3
same,threshold (isoleucine solution),panelists [5]; no mixture added,90 mg/100 ml
